From US20230183226A1, “AKT3 MODULATORS” (Georgiamune LLC, priority 2020, published 2023)
The structures given here were assigned with low confidence; some may be wrong.

Chains of the proteins cited; added tags and fusions are not shown. Residues count along the entry.
UniProt Q9Y243, 2-479 limits assumed: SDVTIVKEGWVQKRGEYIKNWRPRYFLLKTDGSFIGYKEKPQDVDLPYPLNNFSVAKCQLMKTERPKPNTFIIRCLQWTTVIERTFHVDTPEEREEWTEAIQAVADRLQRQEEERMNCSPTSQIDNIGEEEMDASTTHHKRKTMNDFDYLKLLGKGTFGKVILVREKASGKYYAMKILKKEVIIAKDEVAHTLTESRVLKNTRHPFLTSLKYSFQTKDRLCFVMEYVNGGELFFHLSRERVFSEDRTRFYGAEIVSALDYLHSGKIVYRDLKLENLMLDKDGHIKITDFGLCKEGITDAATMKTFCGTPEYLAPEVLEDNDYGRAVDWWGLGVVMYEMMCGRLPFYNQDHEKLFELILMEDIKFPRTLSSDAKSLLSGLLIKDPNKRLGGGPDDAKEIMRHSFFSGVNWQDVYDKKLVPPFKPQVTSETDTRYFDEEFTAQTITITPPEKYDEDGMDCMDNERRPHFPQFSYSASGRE

Molecular target: Akt3 (Homo sapiens, UniProt Q9Y243)
Assay: Akt3 inhibition and activation activity (Foxp3 induction assay / Jurkat-FoxP3 luciferase reporter assay)
Details: read-out: Akt3 activation activity EC50; Table 2

Compound | EC50 [nM]
Cc1cc(Nc2ccc3[nH]c(-c4ccc(Nc5ccnc6ccc(N7CCOCC7)cc56)cn4)nc3c2)ccn1 | < 20
Cc1cc(Nc2ccncc2)ccc1NC(=O)c1ccc(Nc2ccnc3ccc(C#N)cc23)cc1 | < 2000
